{"sequences": {"note": "The chains behind the UniProt entries cited, without tags or fusion partners. Where a name states a change or a piece, a line headed by the entry shows the natural chain unless it says otherwise.", "UniProt Q9UNA4": "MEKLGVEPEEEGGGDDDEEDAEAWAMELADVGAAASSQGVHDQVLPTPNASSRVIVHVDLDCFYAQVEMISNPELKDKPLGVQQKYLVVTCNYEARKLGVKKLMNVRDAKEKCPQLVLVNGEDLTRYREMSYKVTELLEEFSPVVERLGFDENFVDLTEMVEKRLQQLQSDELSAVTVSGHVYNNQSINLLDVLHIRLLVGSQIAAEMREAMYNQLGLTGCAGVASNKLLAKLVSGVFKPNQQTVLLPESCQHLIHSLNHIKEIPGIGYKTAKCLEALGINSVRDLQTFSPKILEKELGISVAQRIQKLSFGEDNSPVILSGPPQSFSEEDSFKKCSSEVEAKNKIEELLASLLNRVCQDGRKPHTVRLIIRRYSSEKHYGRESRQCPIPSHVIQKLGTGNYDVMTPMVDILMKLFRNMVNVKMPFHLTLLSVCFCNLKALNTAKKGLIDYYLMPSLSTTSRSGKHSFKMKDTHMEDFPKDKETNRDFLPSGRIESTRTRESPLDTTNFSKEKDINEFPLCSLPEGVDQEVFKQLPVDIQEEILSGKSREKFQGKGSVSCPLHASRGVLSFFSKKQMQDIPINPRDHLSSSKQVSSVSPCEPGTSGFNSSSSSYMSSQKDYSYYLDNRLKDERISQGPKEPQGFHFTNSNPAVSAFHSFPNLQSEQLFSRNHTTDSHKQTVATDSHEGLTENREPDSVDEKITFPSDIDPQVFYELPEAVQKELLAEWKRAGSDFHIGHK"}, "source": "PubChem BioAssay AID588590", "about": "(National Center for Advancing Translational Sciences (NCATS), 2011)", "note": "About 4,000 (1%) of roughly 390,000 compounds were called active. This list was built around the results that the source calls inconclusive (neither active nor inactive); the mix of calls is not that of the screen. The call rests on the fitted dose curve; in most records, active means well fitted inhibition curve with a large enough effect; inconclusive means small, poorly fitted or top-dose-only effect, or another doubt; inactive means no such curve, though single readings can be large or run the other way. Where the call is inconclusive, the potency comes from a doubtful curve fit. Potency means the concentration at half of the fitted maximal effect."}
{"target": "DNA polymerase iota (Homo sapiens) (UniProt Q9UNA4)", "assay": "qHTS for Inhibitors of Polymerase Iota", "details": "Pol iota fluorescent replication assay, 10 min; series mostly up to 115 µM", "outline": "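Fluorescent replication assay read twice, at 0 min and 10 min after adding 50 nM (final) substrate. Enzyme (10 nM) and compounds were first incubated 15 min at room temperature; enzyme-free buffer wells were negative controls.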"}
{"smiles": "CC(C)Cn1c(=O)c2ccccc2n2c(CCC(=O)Nc3cccc(Cl)c3)nnc12", "Potency": "inactive"}
{"smiles": "Cc1cccc(C)c1OCCN1CCCC1", "Potency": "inconclusive: 25.1 µM [inhibitor, single point]"}
{"smiles": "CCOC(=O)c1cnc2cc(Cl)c(OC)cc2c1NCC1CCCO1", "note": "(stereo not drawn)", "Potency": "inconclusive: 39.8 µM [inhibitor, single point]"}
{"smiles": "CCOc1ccc(Cn2nnc3c(=O)[nH]c(C4CCN(C(=O)c5ccccc5)CC4)nc32)cc1", "Potency": "inactive"}
{"smiles": "CC(C)NC(=O)COC(=O)Cn1[nH]c(=O)c2ccccc2c1=O", "Potency": "inconclusive: 15.8 µM [inhibitor, partial curve, poor fit]"}
{"smiles": "COc1cc(-c2nnc(SCC(=O)NCc3ccccc3Cl)o2)cc(OC)c1OC", "Potency": "inconclusive: 39.8 µM [inhibitor, single point]"}
{"smiles": "COc1ccc(NC(=S)NCCNC(C)=O)cc1", "Potency": "inconclusive: 39.8 µM [inhibitor, single point]"}
{"smiles": "COC(=O)C1=C(C)N(Cc2ccc(C)cc2)C(=O)/C1=C\\c1ccc(O)c(OC)c1", "Potency": "inactive"}
{"smiles": "O=C1Nc2c(c(=O)[nH]c(=O)n2-c2ccccc2)C1(NS(=O)(=O)c1ccc(Cl)cc1)C(F)(F)F", "note": "(stereo not drawn)", "Potency": "inconclusive: 89.1 µM [inhibitor, single point]"}
{"smiles": "CCCOc1ccc(-c2nn(-c3ccccc3)cc2C2NC(=O)NC(C)=C2C(=O)OC(C)C)cc1", "note": "(stereo not drawn)", "Potency": "inactive"}
{"smiles": "O=C(CSc1n[nH]c(-c2ccccc2Br)n1)NC(=O)NCc1ccco1", "Potency": "inconclusive: 112 µM [inhibitor, single point]"}
{"smiles": "Cc1cc(C=O)c(C)n1-c1ccc(Cl)c(C(=O)O)c1", "Potency": "active: 5.62 µM"}
{"smiles": "COC(=O)c1sccc1NC(=O)c1ccc2c(c1)OCO2", "Potency": "inconclusive: 89.1 µM [inhibitor, single point]"}
{"smiles": "OC1(c2ccc3c(c2)OCO3)CCN(Cc2ccccn2)CC1", "Potency": "inconclusive: 70.8 µM [inhibitor, single point]"}
{"smiles": "O=C(O)c1cccc2c1C(=O)c1ccc(-c3ccc(F)cc3OCc3ccccc3)cc1S2(=O)=O", "Potency": "inconclusive: 12.6 µM [inhibitor, partial curve, poor fit]"}
{"smiles": "Cc1ccc(C(=O)COC(=O)c2ccc3c(c2)C(=O)N(c2cccc4ncccc24)C3=O)cc1C", "Potency": "inconclusive: 7.94 µM [inhibitor, full curve, poor fit]"}
{"smiles": "COc1ccc(C)cc1NC(=O)c1cc(S(=O)(=O)NC2CCCCCC2)ccc1F", "Potency": "inconclusive: 0.708 µM [inhibitor, partial curve, poor fit]"}
{"smiles": "COc1cc(OC)cc(C(=O)NC(=S)Nc2ccc(NC(=O)c3ccco3)cc2)c1", "Potency": "inactive"}
